Our source for the binding signal values is publication PMC7819943, “Rice protein-binding microarrays: a tool to detect cis-acting elements near promoter regions in rice”.

Amino acid sequences for entries named in this document (tags omitted).
UniProt Q0JBA9, entry or part of it: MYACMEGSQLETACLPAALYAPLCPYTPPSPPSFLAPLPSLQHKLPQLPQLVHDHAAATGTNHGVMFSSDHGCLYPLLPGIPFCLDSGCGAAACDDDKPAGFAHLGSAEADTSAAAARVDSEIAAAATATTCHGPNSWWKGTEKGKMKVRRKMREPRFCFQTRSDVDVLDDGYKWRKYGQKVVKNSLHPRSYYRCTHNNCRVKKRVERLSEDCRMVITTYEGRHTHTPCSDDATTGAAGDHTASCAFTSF

The other results are listed elsewhere or left out.

The target of the experiment is OsWRKY34 (Oryza sativa, UniProt Q0JBA9 1-250). Description: protein-binding microarray (RPBM); PBS, 2% BSA, 51.3 ng/ul salmon testes DNA, 50 uM zinc acetate, 200 nM TF, 25 C, 1 h; high values mean tight binding. The conditions noted are these: protein: recombinant; tags: N-terminal polyhistidine and DsRed monomer fusion (pET32a); label: CyDye5-dUTP incorporated in the synthesized complementary strand; 3' TTTTT single-stranded linker to array surface; dsDNA, one strand shown. The method, boiled down:
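Ni–NTA purification followed expression in E. coli BL21-CodonPlus of transcription factors fused N-terminally to a polyhistidine tag and DsRed. At 200 nM in PBS with 2% BSA, salmon testes DNA and 50 µM zinc acetate, the protein was incubated for 1 h at 25 °C with a custom Agilent array that had been primer-extended with Cy5-dUTP and blocked with 2% BSA. After washing, the array was read on an Axon 4000B scanner. The binding signal is per-feature fluorescence intensity in arbitrary units.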
On to “CAACACCTAATGCCATTGTTACTCTACCGTAGTAGTATATCGGAGTCACCTAGTGCAG”, for which the binding signal was 8660 fluorescence intensity (a.u.).
Next, “ATCCTGGGCCGACGACTATCCCGCAACTCATTGCTCGCCTCGGAGTCACCTAGTGCAG”: 9930 fluorescence intensity (a.u.); “CTCACGGTAAATCTCGTCGACGTACAGTAACATATACTGGCGGAGTCACCTAGTGCAG”: 8120 fluorescence intensity (a.u.).
Next, “ATCATCTATTTTATATCGTCCATATTATATCATCCTATATCGGAGTCACCTAGTGCAG”: 10600 fluorescence intensity (a.u.); “AGTTTGTCCCATATTCTCAACTTTCCATCACATCATATCACGGAGTCACCTAGTGCAG”: 10500 fluorescence intensity (a.u.); “GGGATTTTGAGTTTTTGCTTGTAGCGTTTGACCACTCGTCCGGAGTCACCTAGTGCAG”: 9740 fluorescence intensity (a.u.).
The figure for “GATCGAGCTCTACCACCACTGCTTCGCCTTCATCAAGTCCCGGAGTCACCTAGTGCAG” is 10400 fluorescence intensity (a.u.).
“GTAATTATCATTTATTTTTATTGTGACTTGATTCATCATCCGGAGTCACCTAGTGCAG”: the binding signal was 9980 fluorescence intensity (a.u.).
The figure for “GGTCCCACTTCGTCCACTTACCCCTCTATCTCTATTTGCTCGGAGTCACCTAGTGCAG” is 9630 fluorescence intensity (a.u.); for “ACAGCACTGTGATGCAGCACTACTTGTTTCCATTACCAAACGGAGTCACCTAGTGCAG” it is 8900 fluorescence intensity (a.u.).
Next, “GCACGCCCTCGAGTTTCTCCTCCTCGTCGACGTCGACCTCCGGAGTCACCTAGTGCAG”: 10400 fluorescence intensity (a.u.); “GTGTTTTGCAATCCTCTGTTTTACGCTTATATTCCTATTACGGAGTCACCTAGTGCAG”: 13600 fluorescence intensity (a.u.); “ACTCCCAGGTTCCATTTCCCTTTTCTTCTTCCAACTTCCACGGAGTCACCTAGTGCAG”: 8160 fluorescence intensity (a.u.).
As to “CACCCAAAAGGATATATGCTCTGCCCCTTGTCTCCATCTCCGGAGTCACCTAGTGCAG”, the binding signal was 8050 fluorescence intensity (a.u.).
As for “CTACCTCTAGTTCTTCTCCATCGAGTTATTCGTCTTCCATCGGAGTCACCTAGTGCAG”, the binding signal was 8470 fluorescence intensity (a.u.).
With “GTTTGAAGTTTGTGTGTGTAGGAAAGTTTTGATGTGATGGCGGAGTCACCTAGTGCAG”, the binding signal was 9140 fluorescence intensity (a.u.).
“GCAGTCCCTTAATATTATGATTAGCTTTAATTTTTGTTCTCGGAGTCACCTAGTGCAG”: the binding signal is 10700 fluorescence intensity (a.u.).
Take “TTTCTTCTGTTGCTTATATGTCGTTTTATGCCCTATCAGACGGAGTCACCTAGTGCAG”: the binding signal is 9700 fluorescence intensity (a.u.).
As to “TTCCCGGCGCTGTCCATTTCTACTACCAAGCTTGTAAATGCGGAGTCACCTAGTGCAG”, the binding signal was 8660 fluorescence intensity (a.u.).
As for “CATCACATATCAACATTGATCAATCTATCATTACCTTCTGCGGAGTCACCTAGTGCAG”, the binding signal was 9990 fluorescence intensity (a.u.).
The figure for “CGCTTTAAGATTCGTGCCGGGACACGTGTCATCATCCTACCGGAGTCACCTAGTGCAG” is 9290 fluorescence intensity (a.u.); for “CCAACCCACCTGGGCCGCCGCGTCTCGTTCTCTCCTCCAACGGAGTCACCTAGTGCAG” it is 9620 fluorescence intensity (a.u.); for “TGTTGCTATGTCGAAGATTTTGTTTTGTTGTATTTGGTGACGGAGTCACCTAGTGCAG” it is 10400 fluorescence intensity (a.u.).
Next, “AACTGACTATACTCACTTCAAATTTGAACTCACATGTTTTCGGAGTCACCTAGTGCAG”: 12200 fluorescence intensity (a.u.); “GAGAGAGAGAGAGAGAGAGAGATAGCCGGGGAGGGAGGGGCGGAGTCACCTAGTGCAG”: 12200 fluorescence intensity (a.u.); “TTTTTTCTCATTTCTTCGATTTGTGCGTCGAACTGCAGCTCGGAGTCACCTAGTGCAG”: 8740 fluorescence intensity (a.u.).
The figure for “AGTTCAAAATTTTAGTGATTTTTATTGTCGGGGATTTTCACGGAGTCACCTAGTGCAG” is 9320 fluorescence intensity (a.u.).
“ACACTCGCGCTCCGCCGCCCTCACGCGTCTTCCATTCTTGCGGAGTCACCTAGTGCAG”: the binding signal was 8400 fluorescence intensity (a.u.).
The figure for “TAAGTTGACTGTTTTTATATGTTTGTATCTTCAGAAGTTCCGGAGTCACCTAGTGCAG” is 8260 fluorescence intensity (a.u.).
As to “TTCATTCCTCCATCCTACTAGATTTTAGCGGGTCGTTTTTCGGAGTCACCTAGTGCAG”, the binding signal was 9540 fluorescence intensity (a.u.).
The figure for “AGGAAATCGGATGAACTTTTTTTTACATGTTTTTTAGATTCGGAGTCACCTAGTGCAG” is 8100 fluorescence intensity (a.u.).
Next, “GGTTTTCTCTCTACTTATGTTTAGCAATTCCGTAAAAAATCGGAGTCACCTAGTGCAG”: 9280 fluorescence intensity (a.u.); “ACGGCATTTTTCGCCCCTTTTGTCACTGAAACACTTCACCCGGAGTCACCTAGTGCAG”: 8860 fluorescence intensity (a.u.).
Consider “GATCGTTGCTGGTTGTAAAATTTAGTTTTTTTTCTAATTTCGGAGTCACCTAGTGCAG”, for which the binding signal was 14600 fluorescence intensity (a.u.).
For the sequence “ACGGAATGTGGAGAGGTGGGTGGGGCCTCGTGGAGATTCCCGGAGTCACCTAGTGCAG”, the binding signal is 9560 fluorescence intensity (a.u.).
With “GCAAAAAAAACCTGCTTGCCCTGTCCCGCTTGTATCCCCACGGAGTCACCTAGTGCAG”, the binding signal was 9090 fluorescence intensity (a.u.).
Next, “GTTGACTTTTTAGTACGTGTTTGACCATTCGTCTTATTCACGGAGTCACCTAGTGCAG”: 10100 ± 646 fluorescence intensity (a.u.); “GAACCATCTGTGTTTGTTCTTCTTTTGCATGAGACGCTCTCGGAGTCACCTAGTGCAG”: 9280 fluorescence intensity (a.u.).
In the case of “ACACCTCTGACCGCCCTTGCAAAACATACCCGGTTGCTAACGGAGTCACCTAGTGCAG”, the binding signal is 10000 fluorescence intensity (a.u.).
Next, “TTGGGTTTCCGTGCCCAACTTTGACTGTTTGTCTTATATGCGGAGTCACCTAGTGCAG”: 8350 fluorescence intensity (a.u.).
Next, “TGGTTCTCACACTGCTCAAAAGCTGGCCTCTTTATTCAGTCGGAGTCACCTAGTGCAG”: 8180 fluorescence intensity (a.u.); “CCTGTCTCCACTCACCGGTCACCACTCACCACTGGACCACCGGAGTCACCTAGTGCAG”: 10400 fluorescence intensity (a.u.).
